Reference: patent publication US20150313825A1, “METHODS AND COMPOSITIONS FOR LOCALLY INCREASING BODY FAT” (TOPOKINE THERAPEUTICS, INC., priority 2012, published 2015)
At least one structure is not confirmed: it was looked up by name or label, or the drawing left a doubt.

Assays:
subcutaneous fat [1] = assay: Randomized controlled trial in mice, daily percutaneous application to right flank for 24 days (Example 1); type: in vivo, C57BL/6J mice
Description: The arms were as follows: vehicle (Lipoderm®), a thiazolidinedione (pioglitazone), harmine, an orexigenic compound (megestrol acetate), and efavirenz. Each compound was combined in the percutaneous Lipoderm® formulation at an equimolar concentration (5 mM). The Lipoderm® vehicle is adapted to deliver the respective compound percutaneously, i.e., across the skin and into subcutaneous fat. The formulations were applied daily to the right flank of each animal, whereas the left flank was used as an untreated control.
A randomized controlled trial was conducted on C57BL/6J. Male mice approximately six weeks old were prospectively randomized into groups and assigned to the following treatment conditions (n=5 animals per group):
Animals were shaved and depilated over the flanks at the start of the study.
Animals were kept in identical conditions and fed ab libitum with a standardized high-fat diet (70% kcal fat). Animals were weighed three times weekly. Following 24 consecutive days of treatment, mice were sacrificed and samples of skin and adjacent fat from the treated flanks are taken for histologic examination.

cheek fat = assay: Randomized double-blind study in subjects with HIV lipodystrophy, cheek fat (Example 6); type: in vivo, human; details: 1% in percutaneous vehicle once a day, after 3 months
subcutaneous fat [2] = assay: Clinical application for breast augmentation (Example 8); type: in vivo, human; details: composition of Example 3 daily, after 3 months
subcutaneous fat [3] = assay: Mouse study of percutaneous rosiglitazone, methods of Example 1 (Example 2); details: for Increase in body mass (%): vehicle 6.6%
subcutaneous fat [4] = assay: Clinical application to reduce skin wrinkles of the hands (Example 10); type: in vivo, human; details: composition of Example 3 daily to dorsal skin of hands, after 3 months
subcutaneous fat [5] = assay: Clinical application for midface augmentation (Example 7); type: in vivo, human; details: composition of Example 3 daily, after 3 months

Compound	Local increase in subcutaneous fat (treated right flank vs untreated left flank) (subcutaneous fat [1]; 5 mM in Lipoderm, following 24 days of therapy)	Relative skin fold thickness of the left and right flanks (subcutaneous fat [1]; Day 24, treated vs untreated flank)	Change in cheek fat (cheek fat)	Clinical size of breasts (subcutaneous fat [2])	Mean Adipose Thickness (mm) ± SEM (subcutaneous fat [3]; rosiglitazone 0.1% by weight)	Increase in body mass (%) (subcutaneous fat [3]; rosiglitazone 0.1% by weight)	Mean Adipose Thickness (mm) ± SEM (subcutaneous fat [3]; rosiglitazone 0.3% by weight)	Increase in body mass (%) (subcutaneous fat [3]; rosiglitazone 0.3% by weight)	Skin wrinkles on clinical exam (subcutaneous fat [4])	Clinical size of treated body part (subcutaneous fat [5])
CCc1ccc(CCOc2ccc(CC3SC(=O)NC3=O)cc2)nc1 (stereo not shown) [Pioglitazone]	local increases in subcutaneous fat	asymmetric, with thicker skin folds on the treated flanks	subjective and/or objective increase in cheek fat							
CN(CCOc1ccc(CC2SC(=O)NC2=O)cc1)c1ccccn1 (stereo not shown) [Rosiglitazone]				the breasts appear clinically larger	0.472 ± 0.058 mm	5.8%	0.562 ± 0.089 mm	8.9%	the skin wrinkles appear lessened on clinical exam	the breasts appear clinically larger
